These are yes or no findings as the source states them, for the method shown. For some of these results: Binding seen in cells or lysates may run through a third protein. Some binding calls cover weakened binding; strength is not graded here. For some of these results: Where a sequence is shown, tags or fusion partners need not be part of it.
Key:
[1] = molecular target: PSD-95 PDZ2 domain without His-tag (human) (UniProt P78352); assay: polyhistidine pull-down: PDZ2 prey on immobilised His6-NR2B bait, imidazole elution, SDS-PAGE, silver stain
[2] = molecular target: HIS-PDZ3 protein (PSD-95 PDZ3, residues 309-401, with tag …) (human) (UniProt P78352); assay: FP competition: fluorescent CRIPT probe (50 nM) on PDZ3 (5 µM)
[3] = molecular target: PSD-95 PDZ2 domain without His-tag (human) (UniProt P78352); assay: polyhistidine pull-down, competition: displaces PDZ2 from the immobilised His6-NR2B bait; SDS-PAGE, silver stain
[4] = molecular target: HIS-PDZ1 protein (PSD-95 PDZ1, residues 61-151, with tag …) (human) (UniProt P78352); assay: FP competition, alanine scan
[5] = molecular target: HIS-PDZ2 protein (PSD-95 PDZ2, residues 155-249, with tag …) (human) (UniProt P78352); assay: FP competition, alanine scan

Binder | binding [1] | binding [3] | binding [4] | binding [5] | binding [2]
IASDV [Compound 10 (IESDV with Glu P^-3 replaced by Ala)] |  |  | binds | binds | 
AESDV [Compound 11 (IESDV with Ile P^-4 replaced by Ala)] |  |  | binds | binds | 

The next lines start with results.

binding [1] | binding [3] | binding [4] | binding [5] | Binder | binding [2]
binds |  |  |  | HHHHHHYEKLSSIESDV [polyhistidine NR2B WT peptide (bait)] | 
 | binds |  |  | IESDV [IESDV (7)] | no binding (tested: log(Conc/M) about -3.3)

Source: US20160176924A1, “MODIFIED PEPTIDES AS POTENT INHIBITORS OF THE PSD-95/NMDA RECEPTOR INTERACTION” (priority 2008, published 2016)
